Reference: patent US20150031859A1
No constants are given. Whether binding was seen depends on the method and setting.

The chains behind the UniProt entries cited, without tags or fusion partners. Where a name states a change or a piece, a line headed by the entry shows the natural chain unless it says otherwise.
UniProt P01568: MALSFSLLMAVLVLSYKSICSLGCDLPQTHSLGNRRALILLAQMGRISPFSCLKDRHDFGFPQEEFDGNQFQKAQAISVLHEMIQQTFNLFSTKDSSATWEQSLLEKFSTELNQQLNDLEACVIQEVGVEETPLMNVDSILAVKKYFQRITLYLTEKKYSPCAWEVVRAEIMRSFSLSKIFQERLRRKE

Target: recombinant interferon rSIFN-co (Synthesis (unnatural, artificially designed; same amino acid sequence as human consensus interferon)) (UniProt P01568)
Assay: purification experiments (solution state)

binding: no binding
Substance: recombinant interferon rSIFN-co (from UniProt P01568 24-189) (ligand)
